Test results: article PMC9950044
No constants are given. Whether binding was seen depends on the method and setting. In cells and extracts the contact can be indirect. Some binding calls cover weakened binding; strength is not graded here.

Protein sequences, listed by entry. Tags and fused reporters are not part of them. Lines headed by an entry give the natural chain unless they say otherwise; changes in a name come on top. Residues count along the entry.
UniProt Q7L523: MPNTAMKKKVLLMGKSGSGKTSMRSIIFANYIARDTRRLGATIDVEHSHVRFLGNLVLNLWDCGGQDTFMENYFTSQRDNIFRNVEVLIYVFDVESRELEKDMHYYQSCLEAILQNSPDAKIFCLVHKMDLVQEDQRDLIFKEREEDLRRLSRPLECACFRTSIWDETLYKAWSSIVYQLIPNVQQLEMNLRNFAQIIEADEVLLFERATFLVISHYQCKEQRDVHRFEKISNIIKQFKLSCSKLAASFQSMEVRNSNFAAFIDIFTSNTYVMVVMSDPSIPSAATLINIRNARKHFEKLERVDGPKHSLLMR
UniProt Q08722, residues 19-323: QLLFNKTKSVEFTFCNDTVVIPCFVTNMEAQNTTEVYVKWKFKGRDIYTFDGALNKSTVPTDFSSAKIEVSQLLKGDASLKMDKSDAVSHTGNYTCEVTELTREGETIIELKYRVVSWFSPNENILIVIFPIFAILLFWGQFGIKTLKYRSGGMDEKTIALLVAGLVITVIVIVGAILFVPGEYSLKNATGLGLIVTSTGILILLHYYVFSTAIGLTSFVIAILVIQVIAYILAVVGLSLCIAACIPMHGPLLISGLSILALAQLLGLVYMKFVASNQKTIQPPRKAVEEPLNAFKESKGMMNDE

What was measured:
[1] = target: RAGA (RRAGA, Ras-related GTP binding A), endogenous (human (endogenous; the cell line is not named, all lines cultured are human)) (UniProt Q7L523); experiment: co-IP; endogenous proteins; RAGA immunoprecipitation from cells lysed in RIPA lysis buffer, primary antibody overnight at 4 °C, protein A/G agarose beads 3 h, four washes with RIPA buffer, immunoblot
[2] = target: RAGA as used in the co-immunoprecipitation with the CD47 truncation mutants (UniProt Q7L523); experiment: co-IP; 3xflag-tagged CD47 full length and truncation mutants with RAGA; cells lysed in RIPA lysis buffer, primary antibody overnight at 4 °C, protein A/G agarose beads, immunoblot; which partner was precipitated is not told

binding [1] | binding [2] | Substance
binds |  | CD47 (cluster of differentiation 47), endogenous (from UniProt Q08722 19-323)
 | binds | 3xflag-tagged full length (FL) CD47 (from UniProt Q08722 19-323)
